Data as given in PubChem BioAssay AID1259260 (Sanger Institute, 2017)
Test: 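Kinases whose knock-down kills colorectal cancer cells or boosts drug effects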 (primary screen). System: human NCI-H716 colorectal cancer cells. Knock-down reagent: siRNA pool against human genes. Treatment: anchor drugs BYL719 (alpelisib) 1 µM, cetuximab 5 µg/ml or trametinib 10 nM, each at a dose chosen to harm viability only mildly; DMSO vehicle for the knock-down-alone arm. Measured: 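Replicate-averaged viability relative to a non-targeting pool, a robust z-score for knock-down alone, and a synergy score per anchor drug versus each agent alone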. Reading the numbers: viability robust z-score, siRNA alone: higher = more surviving cells; below -3 called essential; viability vs control, no drug: higher = more surviving cells; synergy score with BYL719 and synergy score with cetuximab: higher = stronger synergy (synthetic lethality) with drug. Hit rule: 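a knock-down counts as essential if its no-drug robust z-score is lower than -3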. Meaning of the calls: active = essential (knock-down alone lowers viability); inactive = no essential effect.
The whole screen tested 794 reagents; below is a part drawn at random. 13 of all reagents (1.6%) were called active. 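Calls reflect only knock-down without drug; synergy above 0.15 was grouped apart and does not change the call.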 No viability above 1 is reported: the scale is capped. Further read-outs or replicates are left out here. The record does not give: the amount of reagent, the time to read-out.

gene | viability robust z-score, siRNA alone | viability vs control, no drug (fraction of control) | synergy score with BYL719 | synergy score with cetuximab | Outcome
PIM1 (Pim-1 proto-oncogene, serine/threonine kinase) | 0.426 | 0.982 | -0.0895 | -0.0979 | inactive
SRPK1 (SRSF protein kinase 1) | -0.582 | 0.877 | -0.098 | 0.0988 | inactive
TRPM6 | 0.0821 | 0.946 | -0.207 | -0.149 | inactive
TK2 (thymidine kinase 2) | -2 | 0.73 | -0.0415 | -0.149 | inactive
FGFR4 (fibroblast growth factor receptor 4) | 0.602 | 1 | -0.255 | -0.1 | inactive
ITSN1 (intersectin 1) | -0.232 | 0.913 | 0.0198 | -0.0196 | inactive
MET (MET proto-oncogene, receptor tyrosine kinase) | 0.602 | 1 | -0.204 | -0.1 | inactive
SPHK2 (sphingosine kinase 2) | 0.602 | 1 | -0.0121 | -0.1 | inactive
MAP4K3 (mitogen-activated protein kinase kinase kinase kinase 3) | 0.405 | 0.98 | -0.107 | -0.119 | inactive
POMK (protein O-mannose kinase) | 0.602 | 1 | -0.219 | -0.1 | inactive
PRKD1 (protein kinase D1) | 0.602 | 1 | -0.0446 | 0.00377 | inactive
FLT1 (fms related receptor tyrosine kinase 1) | 0.602 | 1 | -0.199 | -0.1 | inactive
GAK (cyclin G associated kinase) | 0.602 | 1 | -0.0399 | -0.1 | inactive
TBK1 (TANK binding kinase 1) | 0.602 | 1 | -0.283 | 0.0348 | inactive
CDK9 (cyclin dependent kinase 9) | 0.602 | 1 | -0.241 | -0.1 | inactive
RIOK3 (RIO kinase 3) | 0.602 | 1 | -0.189 | -0.0573 | inactive
EPHB3 (EPH receptor B3) | 0.602 | 1 | -0.258 | -0.1 | inactive
PRKCE (protein kinase C epsilon) | -0.746 | 0.86 | -0.0978 | -0.224 | inactive
ULK3 (unc-51 like kinase 3) | 0.602 | 1 | -0.179 | -0.1 | inactive
TRIO (trio Rho guanine nucleotide exchange factor) | -0.0906 | 0.928 | -0.318 | -0.165 | inactive
CDADC1 (cytidine and dCMP deaminase domain containing 1) | -2.25 | 0.703 | -0.0828 | -0.0966 | inactive
PKMYT1 (protein kinase, membrane associated tyrosine/threonine 1) | 0.182 | 0.956 | -0.0351 | -0.14 | inactive
PIP5K1C (phosphatidylinositol-4-phosphate 5-kinase type 1 gamma) | 0.602 | 1 | -0.242 | -0.0802 | inactive
OBSCN | -0.112 | 0.926 | -0.165 | -0.00854 | inactive
RPS6KB1 (ribosomal protein S6 kinase B1) | -0.39 | 0.897 | -0.0673 | 0.205 | inactive
ADCK1 (aarF domain containing kinase 1) | 0.602 | 1 | -0.106 | -0.1 | inactive
PAK2 (p21 (RAC1) activated kinase 2) | -0.666 | 0.868 | -0.00639 | -0.0557 | inactive
PFKFB1 (6-phosphofructo-2-kinase/fructose-2,6-biphosphatase 1) | -0.397 | 0.896 | -0.0322 | -0.148 | inactive
RTN4 (reticulon 4) | 0.602 | 1 | -0.247 | -0.1 | inactive
SLK (STE20 like kinase) | -1.19 | 0.814 | -0.255 | -0.152 | inactive
ITPKB (inositol-trisphosphate 3-kinase B) | -0.0687 | 0.93 | -0.227 | -0.163 | inactive
MPP3 (MAGUK p55 scaffold protein 3) | 0.52 | 0.991 | -0.146 | -0.108 | inactive
SYNCRIP (synaptotagmin binding cytoplasmic RNA interacting protein) | 0.602 | 1 | -0.0571 | -0.1 | inactive
ADCK2 (aarF domain containing kinase 2) | -0.0079 | 0.937 | -0.107 | -0.157 | inactive
NTN4 (netrin 4) | 0.602 | 1 | -0.0886 | -0.0669 | inactive
ITPK1 (inositol-tetrakisphosphate 1-kinase) | 0.602 | 1 | -0.187 | -0.1 | inactive
DGKD (diacylglycerol kinase delta) | -1.11 | 0.822 | -0.121 | -0.0328 | inactive
MAP3K7 (mitogen-activated protein kinase kinase kinase 7) | -0.0179 | 0.936 | -0.0994 | -0.0586 | inactive
FXN (frataxin) | 0.602 | 1 | -0.283 | -0.1 | inactive
MYLK4 (myosin light chain kinase family member 4) | 0.602 | 1 | -0.283 | -0.1 | inactive
DLG3 (discs large MAGUK scaffold protein 3) | 0.602 | 1 | -0.234 | -0.1 | inactive
CIB2 (calcium and integrin binding family member 2) | -0.193 | 0.917 | -0.292 | -0.0348 | inactive
PMVK (phosphomevalonate kinase) | 0.00334 | 0.938 | -0.03 | -0.132 | inactive
LATS2 (large tumor suppressor kinase 2) | 0.602 | 1 | -0.0318 | -0.0534 | inactive
DGKK (diacylglycerol kinase kappa) | 0.602 | 1 | -0.152 | -0.0663 | inactive
SNRK (SNF related kinase) | -0.897 | 0.844 | -0.077 | -0.238 | inactive
IKBKG | 0.602 | 1 | -0.127 | -0.1 | inactive
PRKAR2A | 0.602 | 1 | -0.271 | -0.1 | inactive
AKT3 (AKT serine/threonine kinase 3) | 0.602 | 1 | -0.283 | -0.1 | inactive
MAP3K4 (mitogen-activated protein kinase kinase kinase 4) | -0.997 | 0.834 | -0.233 | -0.0687 | inactive

Already shown: entries from further up.
gene | viability robust z-score, siRNA alone | viability vs control, no drug (fraction of control) | synergy score with BYL719 | synergy score with cetuximab | Outcome
OBSCN | -0.112 | 0.926 | -0.165 | -0.00854 | inactive
RPS6KB1 (ribosomal protein S6 kinase B1) | -0.39 | 0.897 | -0.0673 | 0.205 | inactive
ADCK1 (aarF domain containing kinase 1) | 0.602 | 1 | -0.106 | -0.1 | inactive
PAK2 (p21 (RAC1) activated kinase 2) | -0.666 | 0.868 | -0.00639 | -0.0557 | inactive
